Measurements from publication PMC3794620, “The Pyridoxal 5′-Phosphate (PLP)-Dependent Enzyme Serine Palmitoyltransferase (SPT): Effects of the Small Subunits and Insights from Bacterial Mimics of Human hLCB2a HSAN1 Mutations” (BioMed Research International, 2013).
No constants are given. Whether binding was seen depends on the method and setting. Some binding calls cover weakened binding; strength is not graded here.

Biological target: Sphingomonas paucimobilis serine palmitoyltransferase, wild type (Sphingomonas paucimobilis) (UniProt Q93UV0)
Assay: SEC; size exclusion chromatography of the purified enzymes; data not shown; both purified

binding: binds
B1: Sphingomonas paucimobilis serine palmitoyltransferase, wild type (enzyme, UniProt Q93UV0 1-420)
chain: MTEAAAQPHALPADAPDIAPERDLLSKFDGLIAERQKLLDSGVTDPFAIVMEQVKSPTEAVIRGKDTILLGTYNYMGMTFDPDVIAAGKEALEKFGSGTNGSRMLNGTFHDHMEVEQALRDFYGTTGAIVFSTGYMANLGIISTLAGKGEYVILDADSHASIYDGCQQGNAEIVRFRHNSVEDLDKRLGRLPKEPAKLVVLEGVYSMLGDIAPLKEMVAVAKKHGAMVLVDEAHSMGFFGPNGRGVYEAQGLEGQIDFVVGTFSKSVGTVGGFVVSNHPKFEAVRLACRPYIFTASLPPSVVATATTSIRKLMTAHEKRERLWSNARALHGGLKAMGFRLGTETCDSAIVAVMLEDQEQAAMMWQALLDGGLYVNMARPPATPAGTFLLRCSICAEHTPAQIQTVLGMFQAAGRAVGVIG
modifications: PLP cofactor covalently bound as an imine (internal aldimine) to Lys265
